Results published in publication PMC5805371.

Amino acid sequences for entries named in this document (tags omitted).
UniProt O00327: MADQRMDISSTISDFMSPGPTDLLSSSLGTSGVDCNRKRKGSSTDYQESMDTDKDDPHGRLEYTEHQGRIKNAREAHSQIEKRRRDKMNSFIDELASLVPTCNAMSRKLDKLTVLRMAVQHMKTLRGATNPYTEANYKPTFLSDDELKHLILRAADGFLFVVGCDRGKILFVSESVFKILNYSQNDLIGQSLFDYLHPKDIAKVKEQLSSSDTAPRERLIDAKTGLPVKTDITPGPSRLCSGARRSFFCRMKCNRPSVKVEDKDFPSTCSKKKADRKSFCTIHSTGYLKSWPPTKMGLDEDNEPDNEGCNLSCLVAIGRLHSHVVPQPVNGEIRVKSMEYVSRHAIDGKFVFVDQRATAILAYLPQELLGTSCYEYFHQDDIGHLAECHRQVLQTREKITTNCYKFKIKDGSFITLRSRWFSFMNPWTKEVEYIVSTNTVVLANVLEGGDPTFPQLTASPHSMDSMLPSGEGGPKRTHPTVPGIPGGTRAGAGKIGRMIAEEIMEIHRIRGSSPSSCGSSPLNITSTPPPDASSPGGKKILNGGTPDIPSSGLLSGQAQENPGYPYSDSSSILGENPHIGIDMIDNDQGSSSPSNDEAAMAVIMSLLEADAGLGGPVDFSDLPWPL
UniProt O15534: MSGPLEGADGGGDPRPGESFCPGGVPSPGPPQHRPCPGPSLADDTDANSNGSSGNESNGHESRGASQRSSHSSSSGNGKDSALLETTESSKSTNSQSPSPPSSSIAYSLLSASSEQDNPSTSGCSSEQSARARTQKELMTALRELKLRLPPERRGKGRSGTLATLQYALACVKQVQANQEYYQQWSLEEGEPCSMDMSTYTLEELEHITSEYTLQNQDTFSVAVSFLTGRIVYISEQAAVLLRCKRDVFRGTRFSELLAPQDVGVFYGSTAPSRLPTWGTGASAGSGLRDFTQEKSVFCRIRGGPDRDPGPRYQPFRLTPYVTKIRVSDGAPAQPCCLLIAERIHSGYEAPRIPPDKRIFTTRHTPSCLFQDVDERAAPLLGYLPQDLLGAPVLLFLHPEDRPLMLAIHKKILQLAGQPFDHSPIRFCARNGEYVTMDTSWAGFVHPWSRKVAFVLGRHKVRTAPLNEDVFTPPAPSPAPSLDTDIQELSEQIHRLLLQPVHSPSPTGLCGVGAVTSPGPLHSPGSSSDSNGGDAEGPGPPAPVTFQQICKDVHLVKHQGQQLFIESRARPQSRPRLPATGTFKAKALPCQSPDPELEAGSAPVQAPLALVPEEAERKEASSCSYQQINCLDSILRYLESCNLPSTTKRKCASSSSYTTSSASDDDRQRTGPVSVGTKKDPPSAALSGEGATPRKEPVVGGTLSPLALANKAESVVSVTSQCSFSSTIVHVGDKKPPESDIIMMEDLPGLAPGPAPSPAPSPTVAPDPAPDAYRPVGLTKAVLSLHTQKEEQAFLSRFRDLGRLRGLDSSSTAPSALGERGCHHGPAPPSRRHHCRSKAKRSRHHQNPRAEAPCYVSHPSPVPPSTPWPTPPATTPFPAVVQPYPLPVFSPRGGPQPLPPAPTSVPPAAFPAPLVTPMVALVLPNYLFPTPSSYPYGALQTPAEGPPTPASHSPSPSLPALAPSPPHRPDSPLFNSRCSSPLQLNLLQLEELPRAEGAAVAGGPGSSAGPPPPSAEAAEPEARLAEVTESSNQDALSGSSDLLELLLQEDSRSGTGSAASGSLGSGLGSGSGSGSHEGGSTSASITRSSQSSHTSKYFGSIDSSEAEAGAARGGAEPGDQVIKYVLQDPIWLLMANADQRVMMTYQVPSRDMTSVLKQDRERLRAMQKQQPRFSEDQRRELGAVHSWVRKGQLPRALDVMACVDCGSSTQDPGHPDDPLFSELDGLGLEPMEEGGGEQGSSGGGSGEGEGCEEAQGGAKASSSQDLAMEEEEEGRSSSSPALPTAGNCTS
UniProt Q92973: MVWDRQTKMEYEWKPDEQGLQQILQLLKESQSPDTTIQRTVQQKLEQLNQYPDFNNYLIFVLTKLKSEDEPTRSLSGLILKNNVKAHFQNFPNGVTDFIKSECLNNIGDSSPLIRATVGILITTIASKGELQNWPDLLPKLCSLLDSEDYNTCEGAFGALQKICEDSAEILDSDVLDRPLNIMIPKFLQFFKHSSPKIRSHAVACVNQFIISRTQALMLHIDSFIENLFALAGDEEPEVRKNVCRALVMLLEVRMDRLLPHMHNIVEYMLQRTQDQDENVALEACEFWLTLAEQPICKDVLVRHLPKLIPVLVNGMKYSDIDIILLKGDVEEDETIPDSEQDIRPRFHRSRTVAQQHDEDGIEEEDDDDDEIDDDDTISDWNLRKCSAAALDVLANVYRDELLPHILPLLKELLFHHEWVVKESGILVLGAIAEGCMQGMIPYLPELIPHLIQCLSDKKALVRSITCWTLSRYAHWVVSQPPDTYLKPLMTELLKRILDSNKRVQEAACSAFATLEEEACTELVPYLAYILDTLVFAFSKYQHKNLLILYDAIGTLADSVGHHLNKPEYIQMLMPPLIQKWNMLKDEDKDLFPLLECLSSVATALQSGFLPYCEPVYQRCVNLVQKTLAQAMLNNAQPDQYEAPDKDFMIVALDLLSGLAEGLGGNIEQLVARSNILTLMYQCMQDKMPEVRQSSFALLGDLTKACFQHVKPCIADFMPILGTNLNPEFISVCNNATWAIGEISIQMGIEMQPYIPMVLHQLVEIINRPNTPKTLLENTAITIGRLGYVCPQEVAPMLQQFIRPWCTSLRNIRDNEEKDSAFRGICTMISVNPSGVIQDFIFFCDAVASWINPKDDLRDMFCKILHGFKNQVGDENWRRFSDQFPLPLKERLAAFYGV

biological target: T1, CLOCK (human (endogenous in U-2 OS)) (UniProt O15516); assay: affinity purification with mass spectrometry; modified ChIP protocol: 1 mg formaldehyde cross-linked protein extracts from unsynchronized U-2 OS cell nuclei, two different rabbit anti-CLOCK antibodies (Abcam, Cell Signaling) against IgG control, agarose beads, on-bead digestion, label-free LC-MS/MS, triplicates
T1 sequence: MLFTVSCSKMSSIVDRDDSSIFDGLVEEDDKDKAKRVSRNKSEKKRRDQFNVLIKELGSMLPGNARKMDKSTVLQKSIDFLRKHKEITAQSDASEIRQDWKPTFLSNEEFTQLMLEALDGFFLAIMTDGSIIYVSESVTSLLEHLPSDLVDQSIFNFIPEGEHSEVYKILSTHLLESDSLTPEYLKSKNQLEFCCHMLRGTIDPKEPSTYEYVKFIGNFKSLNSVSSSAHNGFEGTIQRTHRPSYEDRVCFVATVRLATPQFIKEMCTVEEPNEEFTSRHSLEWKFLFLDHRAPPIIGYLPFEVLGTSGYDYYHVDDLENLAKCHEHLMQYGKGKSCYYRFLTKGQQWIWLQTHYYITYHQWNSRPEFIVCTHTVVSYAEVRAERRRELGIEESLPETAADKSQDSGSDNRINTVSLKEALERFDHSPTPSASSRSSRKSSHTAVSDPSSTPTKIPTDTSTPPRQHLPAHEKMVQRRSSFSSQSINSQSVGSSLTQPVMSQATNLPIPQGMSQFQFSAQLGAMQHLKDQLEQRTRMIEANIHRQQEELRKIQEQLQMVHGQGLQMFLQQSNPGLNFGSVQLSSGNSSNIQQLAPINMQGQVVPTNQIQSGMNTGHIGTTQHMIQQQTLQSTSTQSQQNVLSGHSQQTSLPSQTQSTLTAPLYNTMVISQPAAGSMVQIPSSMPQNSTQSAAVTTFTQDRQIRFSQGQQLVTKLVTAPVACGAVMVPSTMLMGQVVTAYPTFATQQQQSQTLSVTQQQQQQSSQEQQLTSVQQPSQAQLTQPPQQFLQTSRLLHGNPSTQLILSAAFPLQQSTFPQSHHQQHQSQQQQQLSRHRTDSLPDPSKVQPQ

binding, binds:
BMAL1 (from UniProt O00327 1-626)
PER1, endogenous (from UniProt O15534 1-1290)
Transportin 1 (TNPO1), endogenous (from UniProt Q92973 1-898)

No constants are given. Whether binding was seen depends on the method and setting. In cells and extracts the contact can be indirect. A yes stands for co-enrichment or nearness to the bait. Other partners may have been found.
